Paper PMC10547912
Results are given in words; binding and its absence hold for the method and conditions named. Binding seen in cells or lysates may run through a third protein. Some results given as binding are weak or reduced against the parent protein; the word gives no strength. Each block holds one substance with its values, some of them ahead of it.

Chains of the proteins cited; added tags and fusions are not shown. Residues count along the entry.
UniProt O00206, residues 24-839: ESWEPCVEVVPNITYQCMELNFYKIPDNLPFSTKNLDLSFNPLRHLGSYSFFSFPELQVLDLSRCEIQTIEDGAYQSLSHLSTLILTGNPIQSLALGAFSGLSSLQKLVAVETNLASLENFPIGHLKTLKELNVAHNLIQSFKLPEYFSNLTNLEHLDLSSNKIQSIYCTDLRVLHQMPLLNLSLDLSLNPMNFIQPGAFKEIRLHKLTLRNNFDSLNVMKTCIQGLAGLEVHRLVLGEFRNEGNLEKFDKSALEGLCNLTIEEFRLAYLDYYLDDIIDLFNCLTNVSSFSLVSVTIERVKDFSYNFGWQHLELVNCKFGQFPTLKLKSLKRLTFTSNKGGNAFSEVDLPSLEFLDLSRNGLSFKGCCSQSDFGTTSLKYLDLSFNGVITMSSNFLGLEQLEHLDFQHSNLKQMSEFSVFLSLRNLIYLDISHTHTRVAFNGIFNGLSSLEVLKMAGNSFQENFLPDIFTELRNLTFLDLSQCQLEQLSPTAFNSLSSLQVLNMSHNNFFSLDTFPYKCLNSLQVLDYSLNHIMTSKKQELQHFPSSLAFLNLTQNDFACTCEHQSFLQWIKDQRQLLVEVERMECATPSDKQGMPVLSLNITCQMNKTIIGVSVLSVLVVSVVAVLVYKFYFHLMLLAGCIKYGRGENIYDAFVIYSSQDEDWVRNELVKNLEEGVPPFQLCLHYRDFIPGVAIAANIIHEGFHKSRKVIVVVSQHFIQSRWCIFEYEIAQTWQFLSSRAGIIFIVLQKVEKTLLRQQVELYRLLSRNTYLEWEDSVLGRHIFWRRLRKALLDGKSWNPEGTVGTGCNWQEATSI
UniProt Q86XR7: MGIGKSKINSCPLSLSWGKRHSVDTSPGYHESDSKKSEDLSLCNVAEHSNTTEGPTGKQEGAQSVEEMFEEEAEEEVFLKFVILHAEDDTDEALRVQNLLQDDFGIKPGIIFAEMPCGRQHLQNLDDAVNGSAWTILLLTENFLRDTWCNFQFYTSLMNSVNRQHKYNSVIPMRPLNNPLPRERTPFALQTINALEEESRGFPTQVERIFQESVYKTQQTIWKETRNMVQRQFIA
UniProt P58753: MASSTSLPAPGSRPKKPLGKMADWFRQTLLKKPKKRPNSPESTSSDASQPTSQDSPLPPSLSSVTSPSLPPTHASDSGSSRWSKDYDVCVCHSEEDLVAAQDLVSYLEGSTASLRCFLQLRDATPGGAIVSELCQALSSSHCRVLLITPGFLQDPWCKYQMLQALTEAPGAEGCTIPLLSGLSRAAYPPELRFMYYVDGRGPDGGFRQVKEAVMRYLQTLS
UniProt P51617: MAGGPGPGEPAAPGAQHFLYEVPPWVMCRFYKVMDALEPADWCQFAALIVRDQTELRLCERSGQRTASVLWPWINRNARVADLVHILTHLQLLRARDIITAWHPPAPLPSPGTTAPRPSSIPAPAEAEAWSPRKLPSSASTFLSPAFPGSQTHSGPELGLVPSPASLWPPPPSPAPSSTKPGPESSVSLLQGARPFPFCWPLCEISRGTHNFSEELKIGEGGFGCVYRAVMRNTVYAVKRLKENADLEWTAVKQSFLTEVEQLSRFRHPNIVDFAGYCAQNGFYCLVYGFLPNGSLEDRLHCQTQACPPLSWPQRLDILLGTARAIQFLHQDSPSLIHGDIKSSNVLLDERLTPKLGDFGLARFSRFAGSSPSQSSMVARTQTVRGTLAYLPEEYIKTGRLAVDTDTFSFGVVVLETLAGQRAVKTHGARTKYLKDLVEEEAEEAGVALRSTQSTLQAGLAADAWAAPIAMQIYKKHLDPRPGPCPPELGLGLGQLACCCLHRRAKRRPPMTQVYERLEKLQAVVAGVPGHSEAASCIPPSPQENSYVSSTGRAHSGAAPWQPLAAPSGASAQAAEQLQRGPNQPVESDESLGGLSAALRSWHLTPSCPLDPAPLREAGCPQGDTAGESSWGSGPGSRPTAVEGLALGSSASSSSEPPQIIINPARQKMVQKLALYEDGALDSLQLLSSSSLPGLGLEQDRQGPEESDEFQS
UniProt Q99836: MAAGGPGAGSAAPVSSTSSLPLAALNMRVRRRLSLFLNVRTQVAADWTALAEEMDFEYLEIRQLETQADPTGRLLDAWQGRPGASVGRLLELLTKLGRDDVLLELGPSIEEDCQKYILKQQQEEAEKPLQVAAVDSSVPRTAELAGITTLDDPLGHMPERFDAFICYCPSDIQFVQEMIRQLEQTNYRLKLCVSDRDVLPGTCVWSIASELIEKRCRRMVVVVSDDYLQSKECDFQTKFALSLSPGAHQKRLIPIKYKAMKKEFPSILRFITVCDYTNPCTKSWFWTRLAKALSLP
UniProt Q7L804: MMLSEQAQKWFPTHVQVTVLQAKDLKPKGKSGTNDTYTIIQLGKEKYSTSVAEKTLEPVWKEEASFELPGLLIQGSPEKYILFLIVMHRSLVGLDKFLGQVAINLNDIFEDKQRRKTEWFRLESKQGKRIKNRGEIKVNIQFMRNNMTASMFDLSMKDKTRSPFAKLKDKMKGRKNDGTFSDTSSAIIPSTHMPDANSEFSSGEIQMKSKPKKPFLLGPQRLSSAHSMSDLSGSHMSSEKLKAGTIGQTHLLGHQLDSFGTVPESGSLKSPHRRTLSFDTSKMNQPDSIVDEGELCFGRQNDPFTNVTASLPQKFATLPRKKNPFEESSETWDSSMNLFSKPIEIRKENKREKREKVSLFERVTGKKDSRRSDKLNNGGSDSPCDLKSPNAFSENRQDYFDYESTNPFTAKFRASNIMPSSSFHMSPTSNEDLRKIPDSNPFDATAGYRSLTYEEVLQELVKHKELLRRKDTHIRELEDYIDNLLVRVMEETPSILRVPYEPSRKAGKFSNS
UniProt Q8IUC6: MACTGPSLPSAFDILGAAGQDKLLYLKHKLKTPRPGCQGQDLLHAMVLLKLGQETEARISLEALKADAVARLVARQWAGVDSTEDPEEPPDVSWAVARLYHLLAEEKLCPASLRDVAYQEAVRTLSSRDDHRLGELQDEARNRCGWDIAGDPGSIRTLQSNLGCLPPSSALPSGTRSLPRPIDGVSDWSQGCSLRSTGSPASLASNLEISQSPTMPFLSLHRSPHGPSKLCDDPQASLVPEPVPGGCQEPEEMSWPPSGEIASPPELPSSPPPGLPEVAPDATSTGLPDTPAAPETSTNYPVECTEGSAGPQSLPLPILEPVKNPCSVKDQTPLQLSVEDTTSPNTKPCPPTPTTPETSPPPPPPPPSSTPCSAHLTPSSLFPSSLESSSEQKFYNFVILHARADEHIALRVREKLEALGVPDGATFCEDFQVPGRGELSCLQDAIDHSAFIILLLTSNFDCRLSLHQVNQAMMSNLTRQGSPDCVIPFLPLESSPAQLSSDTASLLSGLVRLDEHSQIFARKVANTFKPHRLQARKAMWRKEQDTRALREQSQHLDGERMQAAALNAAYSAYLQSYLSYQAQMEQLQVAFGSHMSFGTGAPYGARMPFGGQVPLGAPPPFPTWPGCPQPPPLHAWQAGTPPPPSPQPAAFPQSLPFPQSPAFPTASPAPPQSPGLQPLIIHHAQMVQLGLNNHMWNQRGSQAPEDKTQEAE

How the values were obtained:
[1] = target: TLR4^FLAG (HEK 293T overexpression) (human) (UniProt O00206); experiment: co-IP; HEK 293T co-transfected for 48 h; lysis in 150 mM NaCl, 50 mM Tris–HCl pH 8.0, 1 mM EDTA, 1% NP40; anti-FLAG M2 agarose at +4°C for 4 h (legend of Figure 4: 3 h); Western blot; in Figures 4 and 7D,E cells treated with 30 μM C3-Pen or P7-Pen for 1 h before lysis
[2] = target: TRAM^FLAG (TRIF-related adapter molecule with C-terminal FLAG), human (human) (UniProt Q86XR7); experiment: as above
[3] = target: TLR4^FLAG in THP-1 TLR4^FLAG cells (UniProt O00206); experiment: co-IP; anti-FLAG IPs from lysates of THP-1 TLR4^FLAG cells pretreated with 15 μM C3-Pen or P7-Pen and stimulated by LPS (100 ng/ml); Western blot
[4] = target: TIRAP, endogenous in primary human monocytes (human (endogenous in primary monocytes)) (UniProt P58753); experiment: co-IP; endogenous IPs from lysates of primary human monocytes (untreated or LPS 100 ng/ml; pretreated with 15 μM C3-Pen or P7-Pen): anti-IRAK1, anti-IRAK4 or anti-TIRAP antibodies covalently coupled to Dynabeads, +4°C, 4 h; Western blot
[5] = target: IRAK1, endogenous in primary human monocytes (human (endogenous in primary monocytes)) (UniProt P51617); experiment: as above

binding [1]: binds
Substance: TIRAP^HA (from UniProt P58753 1-221)

binding [4]: binds
Substance: IRAK1, endogenous in primary human monocytes (from UniProt P51617 1-712) (enzyme)

binding [5]: binds
Substance: MyD88, endogenous in primary human monocytes (from UniProt Q99836 1-296)

binding [2]: binds
Substance: FIP2^EGFP (Rab11 family interacting protein 2) (from UniProt Q7L804 1-512)

Continued, substance first:

Substance: TRIF^HA (from UniProt Q8IUC6 1-712)
binding [2]: binds

Substance: TIRAP, endogenous in THP-1 TLR4^FLAG cells (from UniProt P58753 1-221)
binding [3]: binds

Substance: TRAM^YFP (from UniProt Q86XR7 1-235)
binding [1]: binds
